In US20090131480A1 (priority 2005, published 2009):

Assays:
[1] = tested on: dopamine turnover in mice striatum; assay: Dopamine, DOPAC and HVA content / dopamine turnover in mice striatum (HPLC with electrochemical detection); type: in vivo, C57BL/6 mice; conditions: donepezil orally, 1 hour before sampling
[2] = tested on: cortical neurons; assay: Kainate-induced neuronal toxicity in cortical neurons (LDH release); type: cell-based, rat (Wistar, fetal); conditions: 200 μM kainate 24 h; drugs 24 hours before and during exposure; FIG. 4
Experimental: The cortical tissues were dissociated to single cells by gentle trituration. […] The cell suspension was centrifuged at 310×g for 3 min and the resulting pellets were resuspended in the medium described above.

[3] = tested on: organotypic hippocampal slice cultures; assay: AMPA toxicity in organotypic hippocampal slice cultures (PI fluorescence in CA1); type: cell-based, Wistar rat; conditions: longer pre-incubation times (4 to 48 hours tested); AMPA alone 46.5±5.0%
Experimental: Medium was changed every 3-4 days.
Neurotoxicity protocols are outlined below.
(1) AMPA: Cultures were transferred to fresh SFM (+PI) containing 30 μM S-AMPA for 3 hours under normal culture conditions. At the end of this period, cultures were returned to fresh SFM for 21 hours prior to determination of neuronal death by PI imaging. GYKI52466 (30 μM) was used as a positive, neuroprotective control.

[4] = tested on: organotypic hippocampal slice cultures; assay: NMDA-induced neurotoxicity in organotypic hippocampal slice cultures (PI fluorescence in CA1); type: cell-based, Wistar rat; conditions: 0.1 μM; NMDA alone 35.1±2.2%
Experimental: Organotypic hippocampal slice cultures were prepared using the basic method of Pringle et al, Brain Research, 755:36-46 (1997) modified as follows. Wistar rat pups (8-11 days old) were decapitated and the hippocampus rapidly dissected into ice-cold Gey's balanced salt solution supplemented with 4.5 mg/ml glucose. Transverse sections (400 μm) were cut on a McIlwain tissue chopper and placed back into ice-cold Gey's balanced salt solution. Slices were separated and plated onto Millicell CM culture inserts (4 per well) and maintained at 37° C./5% CO2 for 14 days. […] Medium was changed every 3-4 days.
PI fluorescence was detected using a Leica DMIL inverted microscope fitted with a rhodamine filter set. Any cultures in which PI fluorescence was detected at this stage were excluded from further study. […] Neuronal damage was assessed by PI fluorescence imaging 24 hours after the initiation of the neurotoxic insult. Neurotoxicity protocols are outlined below.
Neuronal damage was assessed using ImageJ software running on a PC. […] Light transmission images were captured prior to the addition of drugs, and PI fluorescence images recorded at the end of the 24-hour recovery period. […] The area of PI fluorescence in the CA1 was measured using the threshold function on ImageJ, and neuronal damage expressed as the percentage of the CA1 in which PI fluorescence was detected above background. […]

For COc1cc2c(cc1OC)C(=O)C(CC1CCN(Cc3ccccc3)CC1)C2 (stereo not shown) [donepezil, 1-benzyl-4-((5,6-dimethoxy-1-indanon)-2-yl)methylpiperidine], the “elevation of dopamine metabolite in striatum” value [1] was “did not reach significance”, the “neuronal survival after kainate insult” value [2] was “modest effect” and the “effect on AMPA toxicity” value [3] was “No effect”. For the same molecule, the “neuronal damage, % of CA1 with PI fluorescence” value [4] was 23.0±2.4%.
